Assay results taken from patent US20250325552A1, “SUBSTITUTED THIADIAZOLYL DERIVATIVES AS DNA POLYMERASE THETA INHIBITORS” (IDEAYA Biosciences, Inc., priority 2020, published 2025).
pIC50: −log10 of the molar value. The match of structure and compound is tentative.

Protein sequences, listed by entry. Tags and fused reporters are not part of them. Residues count along the entry.
UniProt O75417, 1-899 limits assumed: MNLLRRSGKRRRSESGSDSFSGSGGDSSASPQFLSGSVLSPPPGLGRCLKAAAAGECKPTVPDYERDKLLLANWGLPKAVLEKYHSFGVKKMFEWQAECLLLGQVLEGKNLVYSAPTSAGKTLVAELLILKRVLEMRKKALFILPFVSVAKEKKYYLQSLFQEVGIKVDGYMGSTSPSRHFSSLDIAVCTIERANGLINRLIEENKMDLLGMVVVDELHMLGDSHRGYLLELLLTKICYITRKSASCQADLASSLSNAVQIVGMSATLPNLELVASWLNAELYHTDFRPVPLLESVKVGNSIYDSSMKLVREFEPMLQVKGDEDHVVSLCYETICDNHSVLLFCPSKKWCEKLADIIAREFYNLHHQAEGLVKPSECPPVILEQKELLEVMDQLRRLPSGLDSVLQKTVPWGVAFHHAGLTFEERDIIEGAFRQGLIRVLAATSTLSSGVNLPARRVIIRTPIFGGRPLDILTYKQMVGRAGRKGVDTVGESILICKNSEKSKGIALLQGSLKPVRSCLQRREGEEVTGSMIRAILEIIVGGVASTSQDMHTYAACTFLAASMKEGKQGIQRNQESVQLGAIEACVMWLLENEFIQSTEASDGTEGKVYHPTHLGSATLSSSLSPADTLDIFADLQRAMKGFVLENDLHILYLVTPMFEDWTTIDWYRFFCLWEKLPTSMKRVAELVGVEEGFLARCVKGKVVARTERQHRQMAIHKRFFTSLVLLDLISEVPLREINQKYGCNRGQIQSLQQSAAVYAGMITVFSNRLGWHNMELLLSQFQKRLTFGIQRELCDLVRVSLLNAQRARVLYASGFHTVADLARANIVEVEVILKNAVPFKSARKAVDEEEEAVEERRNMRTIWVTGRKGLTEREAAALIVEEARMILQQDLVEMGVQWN

Molecular target: Polθ theta (1-899) (hPolQ) (Homo sapiens (Human), UniProt O75417)
Assay: Biological Assay 1: Polθ ATPase activity, NADH oxidation-coupled enzymatic assay (10 nM enzyme, 30 min)
Details: read-out: ATPase NADH coupling:Standard Screening:hPolQ IC50; Polθ (1-899) 10 nM, 100 μM ATP, 300 nM dT50 ssDNA; Examples 1 to 268
Protocol: The ability of the compounds of Formula (I), (II), (III), (IV), or Table 1 (Examples 1 to Example 268) to inhibit ATPase activity of Polθ theta (1-899) was determined using the assay described below.
Polθ Theta ATPase activity was determined by measuring the rate of ATP turn over in a NADH oxidation-coupled enzymatic assay. 10-point dilution series of compounds were used in a 384 well format for the inhibition assays. Polθ theta (1-899) (10 nM) in assay buffer (20 mM Tris HCl (pH 7.80), 80 mM KCl, 10 mM MgCl2, 1 mM DTT, 0.01% BSA, 0.01% Tween, 5% glycerol) was transferred to the test wells (20 μL), except the low control wells (20 μL of assay buffer was added to the low control wells). The plate was then incubated at room temperature for 15 min. An equal volume (20 μL) of 100 μM ATP, 300 nM dT50 (single-stranded DNA (ssDNA) containing 50 thymine bases), 300 μM NADH, 6 mM PEP, 10 U/mL lactate dehydrogenase and U/mL pyruvate kinase in assay buffer was added to all the test wells. The plate was then centrifuged at 1000 rpm for 1 min. The reaction was monitored for 30 min by measuring absorbance (λ=340 nm) in a Tecan Spark multimode plate reader every minute. The high control (DMSO with enzyme) with low absorbance intensity represents no inhibition of ATPase reaction while the low control (DMSO with buffer) with high absorbance intensity represents full inhibition of ATPase activity. […]

COc1cnc(Cl)cc1-c1cc(C)ncc1C(=O)Nc1nnc(OCC2CCO2)s1 (single isomer, unassigned) was tested, and the pIC50 was > 6.70.
